PubChem BioAssay AID504764 – Drosophila RNAi Screening Center | 2011
The deposit covers about 22,000 reagents; shown is a random part of those with a known target gene and a result. In the full data, 403 (1.9%) got an active call. 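Unnormalised raw counts per well; ratio z-scores behind the hit calls and whether each hit raises or lowers signal are not deposited.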 A plus sign joins genes that one reagent is predicted to hit. Reagent sequences are not shown. Not given: the amount of reagent.

- Test: 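Knock-downs that raise or lower a Notch target reporter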 (primary screen)
- Cell system: Drosophila Kc167 cells
- Reagents: long dsRNA against Drosophila genes
- Duration: about 5 days (4 days dsRNA, then 24 h after transfection)
- Challenge: transfection of constitutively active membrane-tethered Notch lacking the extracellular domain, read 24 h later
- Read-out: 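Firefly luciferase from an E(spl)m3 reporter with active Notch, plus control-promoter and uninduced reporter wells for normalisation; unnormalised counts, duplicate wells a and b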
- Direction: induced reporter light, run 1, well a and induced reporter light, run 1, well b: higher = more light from the Notch target reporter with active Notch; control promoter light, run 1, well a and control promoter light, run 1, well b: higher = more light from the viral control promoter (cell number, transfection, viability); uninduced reporter light, run 1, well a: higher = more light from the Notch target reporter without active Notch
- Rule for the call: 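Hit if the duplicate-averaged log2 ratio of induced to control-promoter light gives a plate-wise z beyond ±2, or induced to uninduced beyond ±1.8; weak-control or discordant-duplicate wells dropped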
- Calls: active = modifier hit (raised or lowered Notch signal); inactive = not a hit

CG5913 (GeneID 43132) [DRSC15916] gave induced reporter light, run 1, well a = 1.81e5; induced reporter light, run 1, well b = 1.83e5; control promoter light, run 1, well a = 1.96e5; control promoter light, run 1, well b = 2.13e5; uninduced reporter light, run 1, well a = 13425; inactive.
Depletion of Dsp1 (GeneID 117294) [DRSC20315] came out at: induced reporter light, run 1, well a = 1430; induced reporter light, run 1, well b = 1000; control promoter light, run 1, well a = 1060; control promoter light, run 1, well b = 1240; uninduced reporter light, run 1, well a = 1150; inactive.
HisCl1 (GeneID 41426) [DRSC14945] showed induced reporter light, run 1, well a = 1.42e5; induced reporter light, run 1, well b = 1.08e5; control promoter light, run 1, well a = 82200; control promoter light, run 1, well b = 91255; uninduced reporter light, run 1, well a = 10115; inactive.
With knock-down of CG17111 (GeneID 42727) [DRSC15174], the record shows induced reporter light, run 1, well a = 1.53e5; induced reporter light, run 1, well b = 1.59e5; control promoter light, run 1, well a = 1.95e5; control promoter light, run 1, well b = 1.89e5; uninduced reporter light, run 1, well a = 13780; inactive.
After knock-down of CG31204 (GeneID 318625) [DRSC15106] the results were induced reporter light, run 1, well a = 1.74e5; induced reporter light, run 1, well b = 1.42e5; control promoter light, run 1, well a = 2.45e5; control promoter light, run 1, well b = 2.74e5; uninduced reporter light, run 1, well a = 13042; inactive.
Depletion of CG8236 (GeneID 41047) [DRSC16399] came out at: induced reporter light, run 1, well a = 97055; induced reporter light, run 1, well b = 98035; control promoter light, run 1, well a = 91675; control promoter light, run 1, well b = 1.02e5; uninduced reporter light, run 1, well a = 7170; inactive.
After knock-down of CG2224 (GeneID 43617) [DRSC15429], the screen gave induced reporter light, run 1, well a = 91645; induced reporter light, run 1, well b = 76620; control promoter light, run 1, well a = 1.63e5; control promoter light, run 1, well b = 1.28e5; uninduced reporter light, run 1, well a = 7992; inactive.
For Cpr92A (GeneID 42333) [DRSC16000], the values are induced reporter light, run 1, well a = 1.88e5; induced reporter light, run 1, well b = 1.55e5; control promoter light, run 1, well a = 2.00e5; control promoter light, run 1, well b = 2.01e5; uninduced reporter light, run 1, well a = 15315; inactive.
Silencing of CG9410 + CG15908 [DRSC04976] came out at: induced reporter light, run 1, well a = 1.25e5; induced reporter light, run 1, well b = 1.28e5; control promoter light, run 1, well a = 1.19e5; control promoter light, run 1, well b = 1.26e5; uninduced reporter light, run 1, well a = 8180; inactive.
After knock-down of CG9410 + CG15908 [DRSC05001], the screen gave induced reporter light, run 1, well a = 2.32e5; induced reporter light, run 1, well b = 1.92e5; control promoter light, run 1, well a = 1.96e5; control promoter light, run 1, well b = 1.76e5; uninduced reporter light, run 1, well a = 14345; inactive.
With knock-down of CG32075 (GeneID 326192) [DRSC10622], the record shows induced reporter light, run 1, well a = 1.61e5; induced reporter light, run 1, well b = 1.46e5; control promoter light, run 1, well a = 1.55e5; control promoter light, run 1, well b = 2.16e5; uninduced reporter light, run 1, well a = 8890; inactive.
With knock-down of mRpL49 (GeneID 32242) [DRSC19908], the screen gave induced reporter light, run 1, well a = 1.60e5; induced reporter light, run 1, well b = 1.30e5; control promoter light, run 1, well a = 3.30e5; control promoter light, run 1, well b = 2.47e5; uninduced reporter light, run 1, well a = 8380; inactive.
Against Him (GeneID 32801) [DRSC19638], the entry reads induced reporter light, run 1, well a = 80435; induced reporter light, run 1, well b = 73720; control promoter light, run 1, well a = 1.16e5; control promoter light, run 1, well b = 76960; uninduced reporter light, run 1, well a = 11645; inactive.
Knock-down of Jon25Biii (GeneID 33706) [DRSC03115] gave: induced reporter light, run 1, well a = 82070; induced reporter light, run 1, well b = 56885; control promoter light, run 1, well a = 80995; control promoter light, run 1, well b = 83605; uninduced reporter light, run 1, well a = 5325; inactive.
CG9330 (GeneID 40131) [DRSC11066] gave induced reporter light, run 1, well a = 1.62e5; induced reporter light, run 1, well b = 1.41e5; control promoter light, run 1, well a = 1.26e5; control promoter light, run 1, well b = 97655; uninduced reporter light, run 1, well a = 7485; inactive.

2 neighbouring records from above, for reference:
Cpr92A (GeneID 42333) [DRSC16000]: induced reporter light, run 1, well a = 1.88e5; induced reporter light, run 1, well b = 1.55e5; control promoter light, run 1, well a = 2.00e5; control promoter light, run 1, well b = 2.01e5; uninduced reporter light, run 1, well a = 15315; outcome = inactive
CG9410 + CG15908 [DRSC04976]: induced reporter light, run 1, well a = 1.25e5; induced reporter light, run 1, well b = 1.28e5; control promoter light, run 1, well a = 1.19e5; control promoter light, run 1, well b = 1.26e5; uninduced reporter light, run 1, well a = 8180; outcome = inactive

Additional records:
Taf12L (GeneID 33672) [DRSC00467] gave induced reporter light, run 1, well a = 1.66e5; induced reporter light, run 1, well b = 1.33e5; control promoter light, run 1, well a = 1.69e5; control promoter light, run 1, well b = 1.43e5; uninduced reporter light, run 1, well a = 11155; inactive.
After knock-down of Fbxl7 (GeneID 41935) [DRSC15553], the screen gave induced reporter light, run 1, well a = 1.95e5; induced reporter light, run 1, well b = 2.01e5; control promoter light, run 1, well a = 1.92e5; control promoter light, run 1, well b = 1.68e5; uninduced reporter light, run 1, well a = 16720; inactive.
Knock-down of ringer (GeneID 39813) [DRSC10455] resulted in: induced reporter light, run 1, well a = 1.66e5; induced reporter light, run 1, well b = 2.41e5; control promoter light, run 1, well a = 3.10e5; control promoter light, run 1, well b = 2.78e5; uninduced reporter light, run 1, well a = 6050; active.
For CG3987 (GeneID 41822) [DRSC15531] the deposit lists induced reporter light, run 1, well a = 1.44e5; induced reporter light, run 1, well b = 1.40e5; control promoter light, run 1, well a = 1.06e5; control promoter light, run 1, well b = 97795; uninduced reporter light, run 1, well a = 10192; inactive.
After knock-down of Acp76A (GeneID 40078) [DRSC09665] the results were induced reporter light, run 1, well a = 83925; induced reporter light, run 1, well b = 69390; control promoter light, run 1, well a = 94515; control promoter light, run 1, well b = 95355; uninduced reporter light, run 1, well a = 6975; inactive.
mAChR-B (GeneID 40955) [DRSC16345] showed induced reporter light, run 1, well a = 1.14e5; induced reporter light, run 1, well b = 1.40e5; control promoter light, run 1, well a = 75695; control promoter light, run 1, well b = 69340; uninduced reporter light, run 1, well a = 7068; inactive.
Silencing of Cpsf6 (GeneID 38937) [DRSC10781] gave: induced reporter light, run 1, well a = 12565; induced reporter light, run 1, well b = 8880; control promoter light, run 1, well a = 8835; control promoter light, run 1, well b = 3820; uninduced reporter light, run 1, well a = 1182; inactive.
gas (GeneID 37572) [DRSC04521] gave induced reporter light, run 1, well a = 1.49e5; induced reporter light, run 1, well b = 1.52e5; control promoter light, run 1, well a = 1.49e5; control promoter light, run 1, well b = 1.35e5; uninduced reporter light, run 1, well a = 10332; inactive.
For CG12902 (GeneID 36092) [DRSC06217], the entry reads induced reporter light, run 1, well a = 2.01e5; induced reporter light, run 1, well b = 1.51e5; control promoter light, run 1, well a = 2.51e5; control promoter light, run 1, well b = 2.49e5; uninduced reporter light, run 1, well a = 14705; inactive.
